Results on one substance are retold here after patent US11884710B2 (priority 2013, dated 2024).

The data set can be described thus: general procedure: Fmoc solid-phase peptide synthesis; Fmoc-Arg(Pbf)-Wang resin; DIC/HOBT. As to conditions: whole synthesis, scale of the general procedure 0.1-mmol or 0.5-mmol scale of the general procedure.

For the substance “(AEEP)-(AEEP)-RRRRNQGRHFSGGALIHARFVMTAASCFQR”, the “final purity (method not given)” value is given as 97.24%.
